Results reported in publication PMC6405243.
These are yes or no findings as the source states them, for the method shown. For part of these data: In cells and extracts the contact can be indirect. Some entries that bind do so weakly or less than the wild type. For part of these data: Tags and fused reporters may be left off the sequences shown.

Key:
[1] = biological target: T1, Atg12 lacking the N-terminal 56 residues (Atg12^ΔN56) (S. cerevisiae) (UniProt P38316); test: co-IP; as a2, anti-FLAG precipitation of Atg5-FLAG from atg12Δ cells expressing Atg12^ΔN56 from a centromeric plasmid; rapamycin 2 hr; immunoblot for Atg17
T1 sequence: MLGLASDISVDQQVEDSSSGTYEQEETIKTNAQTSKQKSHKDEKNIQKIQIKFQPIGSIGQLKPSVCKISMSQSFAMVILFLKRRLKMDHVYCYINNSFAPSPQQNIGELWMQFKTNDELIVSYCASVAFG

[2] = biological target: T2, Atg12 fused with the Gal4 DNA-binding domain (pGBD-ATG12) (S. cerevisiae) (UniProt P38316); test: two-hybrid; AH109 cells with GAD and GBD fusions, 30°C, 3 days, growth on -LWH or -LWA plates; also in atg13Δ atg31Δ AH109 cells
T2 sequence: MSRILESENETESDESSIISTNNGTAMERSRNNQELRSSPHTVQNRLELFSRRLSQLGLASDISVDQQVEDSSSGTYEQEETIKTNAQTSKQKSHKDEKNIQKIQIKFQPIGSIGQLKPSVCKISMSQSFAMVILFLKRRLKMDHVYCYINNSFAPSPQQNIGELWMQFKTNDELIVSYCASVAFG

[3] = biological target: T3, Atg12 C-terminally fused with GFP (Atg12-GFP) (S. cerevisiae) (UniProt P38316); test: co-IP; GFP-binding protein-conjugated beads, Atg12-GFP as bait; atg1Δ atg13Δ atg29Δ atg31Δ (strain also atg11Δ) cells overexpressing ATG17 and ATG12-GFP with the ADH1 promoter; rapamycin 2 hr; immunoblot
T3 sequence: T2 sequence

B1: Atg17 (protein, UniProt Q06410 1-417)
chain: MNEADVTKFVNNARKTLTDAQLLCSSANLRIVDIKKKLSSWQLSISKLNFLIVGLRQQGKFLYTILKEGIGTKLIQKQWNQAVLVVLVDEMKYWQYEITSKVQRLDGIVNELSISEKDDTDPSKLGDYISRDNVNLLNDKLKEVPVIERQIENIKLQYENMVRKVNKELIDTKLTDVTQKFQSKFGIDNLMETNVAEQFSRELTDLEKDLAEIMNSLTQHFDKTLLLQDKKIDNDEREELFKVVQGDDKELYNIFKTLHEVIDDVDKTILNLGQFLQAKIKEKTELHSEVSEIINDFNRNLEYLLIFKDISNLIDSFKNSCTQDIQTTKELCEFYDNFEESYGNLVLEAKRRKDVANRMKTILKDCEKQLQNLDAQDQEERQNFIAENGTYLPETIWPGKIDDFSSLYTLNYNVKNP
- binding [1]: binds weakly

B2: Atg17 fused with the Gal4 activation domain (pGAD-ATG17) (protein, UniProt Q06410 1-417)
chain: B1 chain
- binding [2]: binds

B3: Atg17 overexpressed with the ADH1 promoter (protein, UniProt Q06410 1-417)
chain: B1 chain
- binding [3]: binds
